# Measurements reported in publication PMC4850634, “Characterization of an A-kinase anchoring protein-like suggests an alternative way of PKA anchoring in Plasmodium falciparum” (Malaria Journal, 2016).
# Chains of the proteins cited; added tags and fusions are not shown. Lines headed by an entry give the natural chain unless they say otherwise; changes in a name come on top.
# UniProt Q8I3X8: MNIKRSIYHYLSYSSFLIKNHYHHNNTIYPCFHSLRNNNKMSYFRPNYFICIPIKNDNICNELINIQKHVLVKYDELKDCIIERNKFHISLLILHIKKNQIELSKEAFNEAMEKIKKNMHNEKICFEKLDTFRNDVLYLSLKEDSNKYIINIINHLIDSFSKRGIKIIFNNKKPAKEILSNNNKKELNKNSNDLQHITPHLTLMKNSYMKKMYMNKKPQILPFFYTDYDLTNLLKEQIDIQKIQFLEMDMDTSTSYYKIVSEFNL
# Results are given in words; binding and its absence hold for the method and conditions named. Binding seen in cells or lysates may run through a third protein. These calls come from enrichment with a bait or labelling near it, and not all partners need be listed.
# B1: Pf14-3-3I, native, in P. falciparum 3D7 parasite protein extracts (protein, UniProt C0H4V6 1-262)
# chain: MATSEELKQLRCDCTYRSKLAEQAERYDEMADAMRTLVEQCVNNDKDELTVEERNLLSVAYKNAVGARRASWRIISSVEQKEMSKANVHNKNVAATYRKKVEEELNNICQDILNLLTKKLIPNTSESESKVFYYKMKGDYYRYISEFSCDEGKKEASNCAQEAYQKATDIAENELPSTHPIRLGLALNYSVFFYEILNQPHQACEMAKRAFDDAITEFDNVSEDSYKDSTLIMQLLRDNLTLWTSDLQGDQTEEKSKDEGLE
# Biological target: GST-PfAKAL (P. falciparum A Kinase anchoring protein-like fused to GST) (Plasmodium falciparum) (UniProt Q8I3X8)
# Assay: affinity purification with mass spectrometry; GST-PfAKAL beads incubated with P. falciparum 3D7 extracts in RIPA buffer, 4 °C, 90 min (100 µg of total parasite proteins for 10 µg of recombinant protein on beads); washes in RIPA and RIPA with 0.1 % SDS; nLC-MSMS; only the target purified
binder,measurement,value
B1,binding,binds
